We go through 2 substances from paper PMC11016940.

Amino acid sequences for entries named in this document (tags omitted).
UniProt Q9Y3D6: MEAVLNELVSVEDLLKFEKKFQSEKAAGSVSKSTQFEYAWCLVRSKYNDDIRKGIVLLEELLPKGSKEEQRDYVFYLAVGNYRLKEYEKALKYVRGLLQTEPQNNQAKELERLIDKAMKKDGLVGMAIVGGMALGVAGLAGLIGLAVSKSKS
UniProt O00429: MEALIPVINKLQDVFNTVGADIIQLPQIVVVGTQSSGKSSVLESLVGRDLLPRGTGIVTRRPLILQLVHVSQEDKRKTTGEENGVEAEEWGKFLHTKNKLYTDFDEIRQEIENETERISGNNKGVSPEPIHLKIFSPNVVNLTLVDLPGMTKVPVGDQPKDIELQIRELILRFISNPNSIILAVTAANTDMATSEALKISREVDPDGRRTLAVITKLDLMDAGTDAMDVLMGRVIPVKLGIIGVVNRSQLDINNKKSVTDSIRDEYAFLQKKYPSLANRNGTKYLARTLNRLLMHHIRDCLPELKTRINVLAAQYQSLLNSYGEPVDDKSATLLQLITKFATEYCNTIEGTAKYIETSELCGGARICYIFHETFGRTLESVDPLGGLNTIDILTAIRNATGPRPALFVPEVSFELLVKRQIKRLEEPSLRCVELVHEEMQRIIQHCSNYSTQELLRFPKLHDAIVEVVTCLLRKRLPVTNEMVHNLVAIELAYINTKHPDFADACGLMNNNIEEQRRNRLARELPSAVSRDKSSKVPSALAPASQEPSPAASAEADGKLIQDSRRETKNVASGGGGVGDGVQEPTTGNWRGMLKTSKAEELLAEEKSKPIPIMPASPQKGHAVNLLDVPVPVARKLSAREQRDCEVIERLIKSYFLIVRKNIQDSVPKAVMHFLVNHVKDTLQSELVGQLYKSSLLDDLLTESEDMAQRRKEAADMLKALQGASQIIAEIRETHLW
UniProt Q8K1M6: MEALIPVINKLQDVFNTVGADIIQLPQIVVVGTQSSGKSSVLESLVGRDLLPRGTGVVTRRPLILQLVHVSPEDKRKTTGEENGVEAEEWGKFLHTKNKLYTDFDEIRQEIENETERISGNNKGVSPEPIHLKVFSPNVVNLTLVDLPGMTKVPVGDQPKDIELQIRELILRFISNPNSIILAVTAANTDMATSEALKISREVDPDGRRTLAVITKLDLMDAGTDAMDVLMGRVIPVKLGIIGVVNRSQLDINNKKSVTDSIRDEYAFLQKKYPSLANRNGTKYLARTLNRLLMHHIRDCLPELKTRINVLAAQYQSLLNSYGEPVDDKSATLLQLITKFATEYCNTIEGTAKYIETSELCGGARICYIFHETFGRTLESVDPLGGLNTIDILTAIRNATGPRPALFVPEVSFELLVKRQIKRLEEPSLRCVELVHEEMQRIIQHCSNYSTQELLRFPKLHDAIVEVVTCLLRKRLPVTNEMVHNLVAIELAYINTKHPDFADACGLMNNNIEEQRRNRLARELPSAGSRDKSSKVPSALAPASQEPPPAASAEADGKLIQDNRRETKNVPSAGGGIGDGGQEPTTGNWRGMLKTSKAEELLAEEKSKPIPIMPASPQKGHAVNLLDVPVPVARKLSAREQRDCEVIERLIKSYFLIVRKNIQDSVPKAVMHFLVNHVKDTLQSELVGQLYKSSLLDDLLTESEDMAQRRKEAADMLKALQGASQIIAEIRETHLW

Assay [1] deals with Fis1, human, in SGC7901 xenograft tumours (human (endogenous in SGC7901)) (UniProt Q9Y3D6). In words: co-IP; endogenous proteins in mitochondria of SGC7901 xenograft tumours, mice without PX-478; kit (Thermo Scientific), 4 µg antibody to Fis1 or Drp1.
Assay [2] has the same target. In words: condition: only xenograft mice treated with PX-478 (HIF-1α inhibitor); co-IP; endogenous proteins in mitochondria of SGC7901 xenograft tumours, mice treated with PX-478 (HIF-1α inhibitor); kit (Thermo Scientific), 4 µg antibody to Fis1 or Drp1.
In assay [3] the target is T1, Fis1, mouse (mouse (endogenous in mouse gastric mucosa)) (UniProt Q9CQ92).
T1 sequence: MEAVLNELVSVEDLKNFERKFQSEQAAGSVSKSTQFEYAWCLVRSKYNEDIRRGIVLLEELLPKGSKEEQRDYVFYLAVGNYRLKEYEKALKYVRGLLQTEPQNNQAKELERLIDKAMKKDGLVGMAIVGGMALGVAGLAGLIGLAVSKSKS
Briefly: co-IP; endogenous proteins of gastric tissue / primary gastric epithelial cells of SO and PHT mice with or without PX-478; kit (Thermo Scientific), 4 µg antibody to Fis1 or Drp1; interaction found in mitochondria.

Results are given in words; binding and its absence hold for the method and conditions named. In cells and extracts the contact can be indirect. Some results given as binding are weak or reduced against the parent protein; the word gives no strength.

As for “Dynamin‐related protein 1 (Drp1), human, in SGC7901 xenograft tumours (from UniProt O00429 1-736)”, the values for the binding result in assay [1] and in assay [2] were “binds” and “no binding”, respectively. Consider “Dynamin‐related protein 1 (Drp1), mouse (from UniProt Q8K1M6 1-736)”, for which the binding result in assay [3] is “binds”.
